The values that follow come from PMC7646526.

By UniProt entry, the sequences of proteins in these tests, tags left out. Where a name states a change or a piece, a line headed by the entry shows the natural chain unless it says otherwise.
UniProt P70731: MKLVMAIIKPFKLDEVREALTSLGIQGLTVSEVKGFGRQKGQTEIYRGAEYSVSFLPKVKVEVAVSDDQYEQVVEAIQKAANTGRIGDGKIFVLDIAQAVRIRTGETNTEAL
UniProt A0A0N7I832: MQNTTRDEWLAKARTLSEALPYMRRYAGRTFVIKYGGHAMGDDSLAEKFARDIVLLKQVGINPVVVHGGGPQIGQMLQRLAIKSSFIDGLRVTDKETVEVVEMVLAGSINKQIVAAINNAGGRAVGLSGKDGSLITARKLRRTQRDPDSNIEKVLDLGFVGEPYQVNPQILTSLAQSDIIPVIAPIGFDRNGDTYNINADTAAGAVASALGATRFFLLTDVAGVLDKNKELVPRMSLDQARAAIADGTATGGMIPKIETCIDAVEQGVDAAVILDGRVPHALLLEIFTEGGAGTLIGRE
UniProt A0A0N7I7C7: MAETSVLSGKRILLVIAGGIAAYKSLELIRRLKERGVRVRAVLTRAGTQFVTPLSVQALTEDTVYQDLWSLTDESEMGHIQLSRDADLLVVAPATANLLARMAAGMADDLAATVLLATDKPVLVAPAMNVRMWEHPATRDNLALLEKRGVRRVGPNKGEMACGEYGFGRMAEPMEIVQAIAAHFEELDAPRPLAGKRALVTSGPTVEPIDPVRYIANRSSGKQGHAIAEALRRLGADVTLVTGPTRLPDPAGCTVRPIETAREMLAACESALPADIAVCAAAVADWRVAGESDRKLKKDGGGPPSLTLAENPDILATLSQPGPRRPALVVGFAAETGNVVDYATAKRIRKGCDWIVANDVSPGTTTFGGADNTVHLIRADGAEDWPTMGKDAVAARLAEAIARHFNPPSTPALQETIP

Results are given in words; binding and its absence hold for the method and conditions named. Binding seen in cells or lysates may run through a third protein. Here binding means that the protein was enriched with, or labelled near, the bait; the list need not be complete.

To fix the notation:
B1: TrkA (G8AQ29) (protein, UniProt A0A0P0EHA2 1-458)
chain: MKVIVCGAGQVGSNIARYLASEGNNVTVIDHSPELIQRISDTLDVQAMVGHASHPDVLEAAGAGETDMIIAVTQIDEINMVACEVAHALFKVPTKIARVRNQSYLKPIWADLFSRDHMPIDVIISPEIAVARAIARRLQVPGAFDMIPLADGKVRVVGVLCTETCPVLHTPLRQLTGLFPDLGLEVVAIIRNDRSFIPGGDDQMLPGDEVYFACDNRHLNRAMSAFGHEEVEARRIIILGGGNIGLCLAEELEAKYPHVTARIIEMNRSRAQYVAQRLSRTMVLHGDGLDPEILEEANVRATETVVAVTNDDEGNILSSLLAKRHGAKRAITLINKASYTSLVSPLGIDAVVSPRAITVSNILQHVRRGRIRAVHSLRDGFAEVIEAEALETSAVVNTPLREVKLPSGVIVGAIVRGDEVIVPRPATVIRPKDRVVILATAGQVKKVEKMFAVRLEFF
B2: Ade (enzyme, UniProt A0A0P0F3K4 1-569)
chain: MAVTRDELKTRIGQALGETKADLVIKNTRFLNVVTGETAAGDIALCGDRIVGTYESYDGTEEIDGSGLTVVPGFIDTHVHCESTCVTPMEFDRCVLPRGTTTAICDPHEICNVLGDKGLRYFLDCAEGTALDLRVQLSSCVPATELETSGARLEAADLLRHKDHPKVLGLAEFMNFPGVFHKVDGVLEKLAAFDGRHIDGHAPLLSGRELNAYLSCGIRNCHETTSAPEAMEKLRKGMQVLIRDGSVSKDVHALAPVIQPETSPFLGFCTDDRNPLDIAEEGHMDHLIRSAIRLGAPLSHVYRAATWSAARGFGLFDRGLIAPGQRADLVLLDDLEDCAVNRVIRNGRVVSPETFAGRPAVSPVGLRSVKLHPVTAEDFAVPARGSVQSVIGVLPGKIITAHLRLEVPAKDGKLVADPDRDILKICVFARHGTNQNVGRGFASGFHFREGALASSVGHDSHNICVVGASDEDMAIAVNRLIELQGGFVAVRNGKVVGELALPLAGLMSLEPFETVERHLRSLRASVKEMGCPLAEPFLQLAFLPLPVIPHLKITDRGLVDVDKFAMVEA
B3: ATase, glutamine synthetase adenylyltransferase (A7Y9V0) (enzyme, UniProt A0A0P0F2U7 1-1005)
chain: MTTTLPKPFDTGLAERGLERWRAEAANAADNDGNNDGDSTGDALRAWAEAYADSAEGRALIDAVCGNSPYLGQILTRELPFVREMVTRGYDDAFATLLRRLEADCAEERNIDRLMTALRIAKRRAALLIAIADITGAWELEAVTGALSDIAETSVRMAANHLLRRAAEAGTLTLPEPQRPWVGSGLIVLGMGKLGARELNYSSDIDLIVLYDDAVVQTPQPDNLARTFIRIARDLVRIMDERTKDGYVFRTDLRLRPDPGATPLAVSVSAAEIYYGSVGQNWERAAMIKARPIAGDPEAGAHFLRFLEPFVWRRHLDFAAIQDIHSIKRQINAHKGHREVTVNGHDIKVGRGGIREIEFFAQTQQLIFGGRDIRVRIAPTLLANKALCAVGRVPEAAVEELEEAYRFLRRVEHRIQMTDDRQTHQIPADDEGVAHLATFLGYAQVEDFRADLLAQLGRVEDRYAELFEEAPSLSGPGNLVFTGTDDDPGTVKTLAGMGYRDPSRVIAVVSTWHRGRYRSTRSGRARELLTELVPAMLNELAKTPAPDDALVKFDSFLERLPAGVGLFSLFIANPWLLALVAEIMGTAPQLAETLSRNPSLLDAVLSPDFFDPLPDAAGLTPEYQRFIAGAHNFEDVLTLSRRWTNDQRFRAGAHILRGITDGDHCGPFLADLADVVVPELAARVEEEFATRHGRIPGGAWVVVAMGKLGSRQLTITSDIDLIVVYEVPPGTRQSDGTKPLAPNEYYIKLTQRLTNAITAPMADGRLYEVDMRLRPSGNAGPLATALDAFTAYQAKDAWTWEHMALTRARVIGGDPPLGHKVESAIRGVLTGPRDPAKVLRDVADMRRRIDKEFGTANPWNVKYARGGLIDIEFTAQYLQLRHGHAHPEILSIATSRALLNAAAAGLLAPEVAEELAATLKLWRRVQGFLRLTTDGVLDPRQVSPTLREGLSRAAFPDEEPAVDFAALDSRIRDIAARAHRHFVALVEEPASRLPPPETNEEAKLP
B4: BCCP (biotin carboxyl carrier protein) (protein, UniProt A0A0P0EWD9 1-149)
chain: MASFDIDGDLVRKLADLLRETGLSEIEFAEGEKRIRVTRPTAAQAVAVHAPVAAPAPATAPAAAPAGKPASHPGAVTSPMVGTAYAAAEPGGTPFVRVGDTVKAGQTVLIIEAMKVMNPIKAPRGGTVVEILISDSQPVEFGEVLMIIE
B5: Rho factor (G8AG60) (protein, UniProt A0A560CHF0 1-418)
chain: MHLQELKCKSPAELLAFAEELQIENASTLRKQDMMFAILKQLAENDVPIYGDGVLEVLQDGFGFLRSPEANYLPGPDDIYVSPSQVRRFSLRTGDTVEGQIRAPKDGERYFALLKVNTINFDAPDKVRHRINFDNLTPLYPEERLRMEVDDPTKKNYTGRIIDLVAPLGKGQRGLIVAPPRTGKTVMLQNIAHSIATNHPEAYLIVLLIDERPEEVTDMARSVRGEVISSTFDEPATRHVQVAEMVIEKAKRLVEHKRDVVILLDSITRLARAYNTVVPSSGKVLTGGVDANALQRPKRFFGAARNIEEGGSLTIIATALIDTGSRMDEVIFEEFKGTGNSEIVLDRKLSDKRTFPAIDISKSGTRKEELLVDKGTISKMWILRRILMPMGVTDAVDFLVDKLKHTKSNSEFFESMNQ
B6: RPH, RNase PH (G8AGG4) (enzyme, UniProt A0A4D8QJU4 1-239)
chain: MRPSGRAHDQLRTISLEPHFSKHAEGSCLVRFGDTHVLCTASVDEGVPRFLKNTGLGWVTAEYGMLPRSTHSRTDREAAKGKQSGRTQEIQRLIGRALRAVTDRAAMGEKQIKIDCDVIQADGGTRTAAITGSFVALHLAFQHLMQIGALKTMPLTDHVAAVSCGIYKNTSVLDLDYAEDSTAQADANFVLTGQGGIVEVQGTAEERPFSEPQFMELLALARKGIDELVALQKAAIAVK
B7: RNase R (enzyme, UniProt A0ABU4P7I5 1-766)
chain: MARTPLNDTPRRSGSFPDKDMVLSFIRSSTTPVGKRELARAFKLSGSDDRERLKALLKELEADGSVERGRNKRVAPPQSLPEVAVLEVTGTDADGEVTARPVTWTGEGNPPRIFLMPERKGHPTLGTGDRVLAKLNRINDRLYEARTIRRLDGTVGRVLGVYYPAADGGRIVPTDKRNKTELLVLPANRNDAEPGELVLADLLPAARLGLPQARVAERLGHTAEPRAVSLIAIHTHGLPTDFPPAALREASHAAVPSLTGRTDLRHIPLVTIDGADARDFDDAVWAEPDPDPANQGGWHLLVAIADVAFYVRPNSALDRTAFERGNSVYFPDRVVPMLPEALSNDLCSLRPQEDRACVAAHLWIDRYGALLRHRFVRGLMRSAARLTYEQVQAARDGVPDEATAPLLETVIAPLYGAFACLWAARQRRGTLELDLPERRVRLDERGRVAEIAPRERLDSHRLIEEFMICANVAAADSLERAGMPGLFRVHDQPSLDKQETLREFLTGIGYSLPRVPRLTPAHFTAVLDRAAGTAESQLVSEVILRSQSQAEYSPENIGHFGLSLDRYAHFTSPIRRYADLIVHRALIRAHGLGPGGLDDAAMAGLTDIGEHISMTERRAATAERDAIDRFTAAFLADRVGALFTGRISGVTRFGLFIRLDENGADGLIPASTLPDDQYEHDERAHALVGQRTGRSYRLGAAVKVVLMEADPLTGSTLFALPRAEGASAGDFVGSTDHPLQSSHPDRPPRSARFAGRATQKQRKRGR

For the first experiment, the target named is His-tagged GlnZ (A. brasilense) (UniProt P70731). The experiment is described as follows: affinity purification with mass spectrometry; GlnZ ligand fishing: His-GlnZ held on Ni2+ columns (HiTrap chelating or Protino Ni-IDA; in one of six assays, ATP4, 3×-FLAG GlnZ on anti-FLAG M2 magnetic beads); A. brasilense 2812 soluble protein extract loaded in 50 mM Tris-HCl pH 8, 100 mM KCl, 5 mM MgCl2, 1 mM ATP or ADP; eluted with 1 mM ATP + 1.5 mM 2-OG; label-free LC-MS/MS against columns without GlnZ; only the target purified.
B1: the binding result is “binds”. In the case of B2, the binding entry is reported as “binds”.

As for B3, the binding entry is listed as “binds”. Regarding B4, the binding entry is recorded as “binds”. Regarding B5, the binding entry is listed as “binds”. Turning to B6, the binding entry was “binds”. Same read-out and setting: to B7 belongs “binds”.

For the next experiment the target is unchanged. Described as above. This is another data set of the same source.
As to “N-acetyl-L-glutamate kinase (NAGK) (G8AI64) (from UniProt A0A0N7I832 1-299) (enzyme)”, the binding result is given as “binds”.

With “CoaBC (G8AF97) (from UniProt A0A0N7I7C7) (enzyme)”, the binding entry was “binds”.
